Measured values taken from article PMC11677128.

Columns and labels:
[1] = target: T1, SlDELLA fused with C-GFP (pFGC-cGFP) (tomato (Solanum lycopersicum)) (UniProt Q7Y1B6); experiment: split reporter; BiFC with split GFP (pFGC-nGFP and pFGC-cGFP), transient expression in Nicotiana benthamiana epidermal cells, confocal microscopy; HY5-RFP as nuclear marker
T1 sequence: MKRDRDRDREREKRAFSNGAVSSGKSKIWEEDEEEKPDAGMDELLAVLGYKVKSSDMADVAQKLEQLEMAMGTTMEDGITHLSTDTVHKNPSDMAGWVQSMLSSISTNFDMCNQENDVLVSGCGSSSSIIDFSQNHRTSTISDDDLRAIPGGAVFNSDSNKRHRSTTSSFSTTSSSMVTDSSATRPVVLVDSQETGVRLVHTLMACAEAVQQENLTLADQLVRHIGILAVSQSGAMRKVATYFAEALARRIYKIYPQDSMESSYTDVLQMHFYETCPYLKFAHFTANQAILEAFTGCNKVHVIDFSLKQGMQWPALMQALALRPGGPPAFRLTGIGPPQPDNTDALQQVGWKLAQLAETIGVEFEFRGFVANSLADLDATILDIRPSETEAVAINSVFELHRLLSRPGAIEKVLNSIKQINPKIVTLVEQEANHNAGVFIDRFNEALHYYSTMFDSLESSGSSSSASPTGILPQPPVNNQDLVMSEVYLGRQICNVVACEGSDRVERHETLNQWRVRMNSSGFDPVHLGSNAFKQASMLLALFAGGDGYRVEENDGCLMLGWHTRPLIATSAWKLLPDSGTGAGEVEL

[2] = target: T2, SlDELLA (pGBKT7-SlDELLA) (tomato (Solanum lycopersicum)) (UniProt Q7Y1B6); experiment: two-hybrid; Clontech Matchmaker GAL4 system III, Y2H Gold yeast; SlUPA-like in pGADT7, the others in pGBKT7; growth on SD/-Ade/-His/-Leu/-Trp with X-alpha-Gal, 30 °C, 3 days
T2 sequence: T1 sequence

Row | binding [1] | binding [2] | Substance
1 | binds | – | SlUPA-like-N (SlUPA-like fused with N-GFP, pFGC-nGFP) (tomato (Solanum lycopersicum))
2 | – | binds | SlUPA-like (pGADT7-SlUPA-like) (tomato (Solanum lycopersicum))

No constants are given. Whether binding was seen depends on the method and setting. Binding can be weak; no strength is given. For some assays here: Binding seen in cells or lysates may run through a third protein. For some assays here: Where a sequence is shown, tags or fusion partners need not be part of it.
